SMILES strings stand for the structures. Some of the results follow.

The subject of this assay is T1, CTL2-GFP (C. trachomatis L2/434/Bu, GFP-expressing).
T1 construct: L2/434/Bu, GFP-expressing
The arrangement: species or system HeLa; Intracellular C. trachomatis growth in HeLa cells, bulk GFP fluorescence relative to DMSO. Particulars: bulk GFP, single well; 28.5 h, 10 µM; inhibitor.
For `CCC(C)(C)c1ccc(S(=O)(=O)NCc2ccc(C(F)(F)F)cc2)cc1` [CBK044820], the “% of control remaining” value came out at 75.1271%.

As for `CCc1nc(-c2ccc(N(C)C)nc2)n(C)n1` [CBK306897], the “% of control remaining” value is recorded as 141.493%.

With `O=S(=O)(NC1CCCCC1n1cc(-c2ccccc2)nn1)c1ccc(Cl)cc1` (stereo not drawn) [CBK266391], the “% of control remaining” value is on record as 185.736%.

As to `C=CCn1c(S)nnc1COc1cccc2ccccc12` [CBK267292], the “% of control remaining” value came out at 135.188%.

With `Cc1cc2nc(C(=O)NCCCn3ccnc3C(C)C)cc(C)n2n1` [CBK307022], the “% of control remaining” value is 121.288%.

For the molecule `CCOc1ccc(-c2cc(C(=O)N3CCN(C)CC3)c3ccccc3n2)cc1` [CBK066900], the “% of control remaining” value was found to be 106.048%.

For `COc1cccc(C(=O)Nc2ccccc2C(=O)Nc2cccc(C(=O)O)c2C)c1` [CBK265768], the “% of control remaining” value is 120.319%.

On to `Cc1cccc(N2CCN(CC(=O)Nc3ccc(S(N)(=O)=O)cc3)CC2)c1C` [CBK269369], for which the “% of control remaining” value is 134.942%.

As for `O=C(CN1CCCCC1Cn1cccn1)NCc1ccccn1` (stereo not drawn) [CBK306146], the “% of control remaining” value was 140.11%.

Regarding `COc1ccccc1-c1cnc2[nH]c(=O)n(C3CCCCC3)c2n1` [CBK064203], the “% of control remaining” value stood at 125.824%.

As for `NS(=O)(=O)c1ccc(Nc2nc3nonc3nc2Nc2ccc(S(N)(=O)=O)cc2)cc1` [CBK261110], the “% of control remaining” value is listed as 97.7302%.

Take `CC(=O)c1ccc(-c2nc(NC(=O)c3cccc([N+](=O)[O-])c3)cnc2-c2ccc(F)c(Cl)c2)s1` [CBK036816]: the “% of control remaining” value amounted to 108.43%.

With `COc1ccc(CCN2CNc3c(c(=O)n(C)c(=O)n3C)C2)cc1OC` [CBK074818], the “% of control remaining” value came out at 130.406%.

On to `COc1cccc(C(=O)NNC(=O)Nc2ccccc2)c1` [CBK261608], for which the “% of control remaining” value was 99.7485%.

For `Cc1c(Br)c([N+](=O)[O-])nn1C(C)C(=O)NCc1ccco1` (stereo not drawn) [CBK269108], the “% of control remaining” value is recorded as 117.775%.

For the molecule `O=C(CSc1n[nH]c(=O)n1C1CCCCC1)NCc1ccc(N2CCCC2=O)cc1` [CBK299785], the “% of control remaining” value turned out to be 116.257%.

For the molecule `CCOC(=O)c1ccnc(-c2cc3ccccc3o2)c1` [CBK149253], the “% of control remaining” value amounted to 94.0952%.

As to `CC1(C)CC(=O)Nc2ccccc2S1` [CBK025483], the “% of control remaining” value is recorded as 110.005%.

With `COc1ccc2ncc(C#N)c(Nc3ccc(OC)c(OC)c3)c2c1` [CBK287808], the “% of control remaining” value is 140.672%.

`N#CC(/N=C/c1ccc(C#Cc2ccccc2)cc1)=C(C#N)/N=C/c1ccc(C#Cc2ccccc2)cc1` [CBK262066]: the “% of control remaining” value amounted to 105.184%.

`COc1ccc(OCCN2CCC3(CC2)CN(C(=O)CO)c2ccccc23)cc1` [CBK131512]: the “% of control remaining” value is 100.218%.

On to `Cn1c(O)c(CCNc2cc([C@H]3C[C@@H](N)C3)nc(C3CC3)n2)cnc1=O` [CBK306819], for which the “% of control remaining” value is recorded as 107.159%.

Turning to `Cc1ccc(OCc2occc2C(=O)NCCn2ccnc2C)cc1` [CBK306725], the “% of control remaining” value was found to be 166.743%.

`CCCCOC(=O)c1ccc(NC(=O)c2c(Cl)cccc2Cl)cc1` [CBK263664]: the “% of control remaining” value is on record as 109.94%.

Consider `O=S(=O)(c1ccc2ccccc2c1)c1cnns1` [CBK001887], for which the “% of control remaining” value was determined as 104.049%.

Regarding `CN(C)c1cccc(-c2cc(N3CCN(c4ccccn4)CC3)ncn2)c1` [CBK037825], the “% of control remaining” value turned out to be 186.863%.

As for `CCCOc1c(Cl)cc(/C=C2\N=C(c3ccc(OC)cc3)OC2=O)cc1OCC` [CBK098846], the “% of control remaining” value is on record as 113.417%.

In the case of `Cc1nc2cc(-c3nccn3C)nn2c(N2CCN(c3ccc4c(c3)OCCO4)CC2)c1C` [CBK286186], the “% of control remaining” value came to 127.036%.

In the case of `CCN(CC)C(=O)c1cccc(NS(=O)(=O)c2cccc(C(=O)O)c2)c1` [CBK296943], the “% of control remaining” value is recorded as 100.107%.

In the case of `CC(C)(C)c1ccc(OCc2nnc(Sc3nc4ccc([N+](=O)[O-])cc4s3)n2-c2ccccc2)cc1` [CBK263366], the “% of control remaining” value amounted to 94.4578%.

For `CCc1ccc(NC(=O)CN(CCO)Cc2cc(Br)ccc2F)cc1` [CBK305968], the “% of control remaining” value came to 138.442%.

Regarding `COc1cccc(OCc2ccc(Cn3ccn(C(=O)CCCC(C)C)c3=O)cc2)c1` [CBK106638], the “% of control remaining” value came out at 111.518%.

As to `COc1ccccc1-c1cn2ccnc2c(NCc2ccccc2)n1` [CBK037372], the “% of control remaining” value was 164.052%.

With `COc1ccc(N2CCN(c3nc(OC)nc(OC)n3)CC2)cc1` [CBK264245], the “% of control remaining” value is listed as 100%.

`O=C(CN1C(=O)c2ccccc2S1(=O)=O)Nc1ccccc1-c1ccccc1` [CBK266390]: the “% of control remaining” value amounted to 150.762%.

Turning to `O=C(CSc1nc(-c2ccc(F)cc2)cc(C(F)(F)F)n1)NCCN1CCOCC1` [CBK266121], the “% of control remaining” value was 220.425%.

Consider `O=C(O)c1sccc1S(=O)(=O)NCc1ccc(COCC(F)(F)F)cc1` [CBK296706], for which the “% of control remaining” value amounted to 134.267%.

With `O=C(N[C@H]1CCN2C(=O)c3cc(-c4ccsc4)ccc3NC(=O)[C@@H]2C1)c1cccs1` [CBK289563], the “% of control remaining” value was 95.2245%.

With `Cc1cc2c(cc3c(=O)n(CC(=O)NCC4CC4)nc(C)n32)s1` [CBK284097], the “% of control remaining” value stood at 109.528%.

For `O=S1(=O)CCN(Cc2cn(-c3ccccc3)nn2)CC1` [CBK113103], the “% of control remaining” value was 126.706%.

On to `Cc1nc2c(C(=O)NC3CCOCC3)cnn2c(C)c1Cc1cccc(Br)c1` [CBK165011], for which the “% of control remaining” value was 125.897%.

As to `CCN(CC)C(=O)CCn1c(-c2cccnc2)cc2cccnc21` [CBK282160], the “% of control remaining” value is given as 127.712%.

As to `COc1ccc(N2CCN(C(=O)c3ccc([N+](=O)[O-])o3)CC2)cc1` [CBK091410], the “% of control remaining” value stood at 33.4758%.

Consider `COc1ccc(C2c3cc(OC)c(OC)cc3CC(=O)N2c2cccc(C(=O)O)c2)cc1OC` (stereo not drawn) [CBK296118], for which the “% of control remaining” value came out at 126.403%.

Consider `Cc1cc(COc2cc(NC(C)C)ncn2)no1` [CBK115887], for which the “% of control remaining” value worked out at 142.84%.

With `Cc1ccc(-n2c(SCC(=O)NCc3ccccc3)nnc2-c2ccccc2O)c(C)c1` [CBK268892], the “% of control remaining” value came out at 107.606%.

For `O=C(CCNS(=O)(=O)c1ccccc1)N1CCC(Cc2ccccc2)CC1` [CBK270091], the “% of control remaining” value was determined as 118.616%.

Regarding `O=C(O)CC(c1ccccc1)c1ccc2c(c1)OCO2` (stereo not drawn) [CBK286983], the “% of control remaining” value stood at 118.45%.

For `CCOC(=O)c1cn(CC2(CO)CCC2)cc(Oc2ccccc2)c1=O` [CBK306698], the “% of control remaining” value worked out at 123.317%.

With `Cc1cc(-c2sc(N)nc2-c2cccs2)on1` [CBK284492], the “% of control remaining” value was determined as 152.262%.

On to `Clc1ccc(CN2CCc3ccccc3C2)cc1Cl` [CBK126395], for which the “% of control remaining” value worked out at 83.5785%.

Turning to `COc1ccc(/C=N/NC(=O)c2cc[nH]n2)cc1COc1ccc(Cl)cc1Cl` [CBK263708], the “% of control remaining” value is given as 132.794%.

Regarding `CC(C)CCCC(=O)n1ccn(CCCOc2ccccc2)c1=O` [CBK106561], the “% of control remaining” value amounted to 83.6406%.

Consider `COc1ccc(-c2nc(-c3cc4ccccc4s3)cnc2N)cc1OC` [CBK063963], for which the “% of control remaining” value is on record as 88.7713%.

Regarding `COc1cc(CNCc2ccccn2)ccc1OCc1ccccc1C` [CBK270108C], the “% of control remaining” value is reported as 97.9249%.

For `CCCCN(C)c1nccnc1-c1ccncc1` [CBK037655], the “% of control remaining” value is 113.45%.

Consider `CCCN(CC1CC1)C1CCc2cccc(C(N)=O)c2C1` (stereo not drawn) [CBK016579], for which the “% of control remaining” value came to 130.871%.

Consider `O=[N+]([O-])c1cc(C(F)(F)F)ccc1NCCCNc1nc(N2CCOCC2)nc2ccccc12` [CBK266567], for which the “% of control remaining” value turned out to be 108.734%.

As to `CCOc1ccc(S(=O)(=O)N2CCN(CCCC#N)CC2)c2cccnc12` [CBK063046], the “% of control remaining” value was determined as 104.723%.

Take `CCc1c(C)nc2ccccc2c1SCCOC(=O)Nc1ccccc1` [CBK155466T]: the “% of control remaining” value is 105.875%.

As to `C=C(C)Cn1c(SC(C)C)nnc1-c1ccccc1Cl` [CBK200079], the “% of control remaining” value amounted to 86.8175%.

In the case of `COc1ccc(-c2ccc(C#N)c(SCc3ccncc3)n2)cc1` [CBK269883], the “% of control remaining” value is recorded as 70.0818%.

For `CC1CCN(Cc2ccc(-c3nnn(CC(=O)NCc4ccc(NS(C)(=O)=O)cc4)n3)cc2)CC1` [CBK144588C], the “% of control remaining” value came to 108.59%.

`COc1ccc(CC(=O)Nc2nc(OC)cnc2/C=C\c2ccccc2)cc1` [CBK145224]: the “% of control remaining” value is recorded as 124.52%.

Take `Nc1nc2c([C@@H]3O[C@H](CO)[C@H](O)C3O)c[nH]c2c(=O)[nH]1` (stereo partly drawn) [CBK201292]: the “% of control remaining” value is given as 106.523%.

With `Cc1ccccc1-c1nnc2n1CCCN2` [CBK200089], the “% of control remaining” value stood at 115.524%.

As for `CCOC(=O)c1c(NC(=O)CC2Sc3ccccc3NC2=O)sc(C)c1C` (stereo not drawn) [CBK263349], the “% of control remaining” value was 100%.

Consider `COc1cccc(CN2CCN(C(=O)c3ccco3)CC2)c1OC` [CBK074380], for which the “% of control remaining” value worked out at 110.947%.

Take `O=C(c1ccccc1F)N1C[C@H](c2ccsc2)[C@H]2CN(Cc3cccc(F)c3)CC[C@H]21` [CBK285660]: the “% of control remaining” value stood at 77.6304%.

Consider `CC(=O)Cc1nc2ccccc2nc1O` [CBK089805], for which the “% of control remaining” value is 137.565%.

As to `COc1ccccc1OCc1ccccc1` [CBK002814], the “% of control remaining” value worked out at 118.238%.

Take `CC(=O)c1ccc(NC(=O)N[C@H]2CCN3C(=O)[C@H]4CCCN4C(=O)[C@H]23)cc1` [CBK289228]: the “% of control remaining” value is reported as 135.358%.

For the molecule `CC(C)n1c(=O)n(CC(=O)N2CCc3ccccc32)c2cccnc21` [CBK283855], the “% of control remaining” value is 109.222%.

For `Cc1ccc2c(c1)c(C(=O)N1CCn3nc(CO)cc3C1)nn2C` [CBK307134], the “% of control remaining” value is on record as 132.9%.

As for `CC(C)S(=O)(=O)n1ccn(-c2cccc(C(F)(F)F)c2)c1=O` [CBK106577], the “% of control remaining” value is reported as 152.526%.

In the case of `Cc1nccn1CC1(O)CCN(CC2=CCC3CC2C3(C)C)CC1` (stereo not drawn) [CBK284981], the “% of control remaining” value is reported as 133.825%.

On to `CCN1CC2(CCN(CC(N)=O)CC2)c2ccccc21` [CBK131485], for which the “% of control remaining” value is 142.285%.

As to `O=C(CN1CC[C@H]2NC(=O)COc3ccccc3CCCC[C@@H]2C1)NCc1ccccn1` [CBK292046], the “% of control remaining” value was determined as 139.91%.
